# Where a name gives a salt, the structure may show the parent alone. The list shows a part of the results. Most entries show no effect beyond the scatter of the controls.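 Using flow cytometry, the assay measures the median γH2AX antibody signal in S-phase Reh cells (a human leukemia line). Each score is the number of standard deviations from the median difference of paired plate sets. Candidate hits scored above 2.5; compounds scoring below -2 lowered MK1775-induced damage.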
# Tested on: Reh
# Assay: Z' of S-phase gammaH2AX difference (drug + MK1775 minus drug alone) (Z-score); higher = stronger synergistic S-phase DNA damage with MK1775
# Details: MK1775 concentration 400 nM; first compound 10 µM; 4 h
row,SMILES,Z' of S-phase gammaH2AX difference (Z-score)
1,COc1cc(C(O)C(=O)O)ccc1O (centres undefined) [(?)-Vanillylmandelic acid] + C=CCn1c(=O)c2cnc(Nc3ccc(N4CCN(C)CC4)cc3)nc2n1-c1cccc(C(C)(C)O)n1 [MK1775],inactive: -0.367
2,COc1ccc(COc2cc3oc(=O)c4cc(C(C)O)ccc4c3cc2OC)cc1 (centres undefined) [Palomid 529] + C=CCn1c(=O)c2cnc(Nc3ccc(N4CCN(C)CC4)cc3)nc2n1-c1cccc(C(C)(C)O)n1 [MK1775],inactive: 0.154
3,CCCCCCCC/C=C\CCCCCCCC(=O)O [Oleic Acid] + C=CCn1c(=O)c2cnc(Nc3ccc(N4CCN(C)CC4)cc3)nc2n1-c1cccc(C(C)(C)O)n1 [MK1775],inactive: 0.223
4,CC(C)(C)NCC(O)c1ccc(O)c(CO)c1 (centres undefined) [Albuterol hemisulfate] + C=CCn1c(=O)c2cnc(Nc3ccc(N4CCN(C)CC4)cc3)nc2n1-c1cccc(C(C)(C)O)n1 [MK1775],inactive: -0.483
5,CC(C)(C)NCC(O)c1ccc(O)c(CO)c1 (centres undefined) [Salbutamol] + C=CCn1c(=O)c2cnc(Nc3ccc(N4CCN(C)CC4)cc3)nc2n1-c1cccc(C(C)(C)O)n1 [MK1775],inactive: -0.378
6,Cc1c(OCC(F)(F)F)ccnc1C[S+]([O-])c1nc2ccccc2[nH]1 (centres undefined) [Lansoprazole] + C=CCn1c(=O)c2cnc(Nc3ccc(N4CCN(C)CC4)cc3)nc2n1-c1cccc(C(C)(C)O)n1 [MK1775],inactive: 0.81
7,[N-]=[N+]=Nc1ccc(C(=O)CSC[C@H](NC(=O)CC[C@H](N)C(=O)O)C(=O)NCC(=O)O)cc1 [S-(p-Azidophenacyl)glutathione] + C=CCn1c(=O)c2cnc(Nc3ccc(N4CCN(C)CC4)cc3)nc2n1-c1cccc(C(C)(C)O)n1 [MK1775],inactive: 0.0601
8,C#CCN(C)CC1=Cc2ccccc2Oc2ccccc21 + C=CCn1c(=O)c2cnc(Nc3ccc(N4CCN(C)CC4)cc3)nc2n1-c1cccc(C(C)(C)O)n1 [MK1775],inactive: 0.301
9,Cn1c(=O)c2c(ncn2C)n(C)c1=O [Caffeine] + C=CCn1c(=O)c2cnc(Nc3ccc(N4CCN(C)CC4)cc3)nc2n1-c1cccc(C(C)(C)O)n1 [MK1775],inactive: -0.271
10,CC[C@@H]1C(=O)N(C)c2cnc(Nc3ccc(C(=O)NC4CCN(C)CC4)cc3OC)nc2N1C1CCCC1 + C=CCn1c(=O)c2cnc(Nc3ccc(N4CCN(C)CC4)cc3)nc2n1-c1cccc(C(C)(C)O)n1 [MK1775],inactive: -0.214
11,NC1CONC1=O (racemic) [DL-Cycloserine] + C=CCn1c(=O)c2cnc(Nc3ccc(N4CCN(C)CC4)cc3)nc2n1-c1cccc(C(C)(C)O)n1 [MK1775],inactive: 0.818
12,COc1cc2nc(N3CCCN(C)CC3)nc(NC3CCN(Cc4ccccc4)CC3)c2cc1OC + C=CCn1c(=O)c2cnc(Nc3ccc(N4CCN(C)CC4)cc3)nc2n1-c1cccc(C(C)(C)O)n1 [MK1775],inactive: -0.739
13,"OC[C@H]1NC[C@@H](O)[C@@H]1O [1,4-Dideoxy-1,4-imino-D-arabinitol] + C=CCn1c(=O)c2cnc(Nc3ccc(N4CCN(C)CC4)cc3)nc2n1-c1cccc(C(C)(C)O)n1 [MK1775]",inactive: -1.29
14,Cc1nc2c([nH]1)c(=O)n(C)c(=O)n2Cc1ccco1 [Furafylline] + C=CCn1c(=O)c2cnc(Nc3ccc(N4CCN(C)CC4)cc3)nc2n1-c1cccc(C(C)(C)O)n1 [MK1775],inactive: 1.04
15,CCC1(C)CC(=O)NC1=O (centres undefined) [Ethosuximide] + C=CCn1c(=O)c2cnc(Nc3ccc(N4CCN(C)CC4)cc3)nc2n1-c1cccc(C(C)(C)O)n1 [MK1775],inactive: 0.712
16,COc1cc(CNC(=O)CCCCCCC(C)C)ccc1O [Dihydrocapsaicin] + C=CCn1c(=O)c2cnc(Nc3ccc(N4CCN(C)CC4)cc3)nc2n1-c1cccc(C(C)(C)O)n1 [MK1775],inactive: 0.587
17,N#CC[C@H](C1CCCC1)n1cc(-c2ncnc3[nH]ccc23)cn1 + C=CCn1c(=O)c2cnc(Nc3ccc(N4CCN(C)CC4)cc3)nc2n1-c1cccc(C(C)(C)O)n1 [MK1775],inactive: -0.242
18,CCCCS(=N)(=O)CCC(N)C(=O)O [L-Buthionine-sulfoximine] + C=CCn1c(=O)c2cnc(Nc3ccc(N4CCN(C)CC4)cc3)nc2n1-c1cccc(C(C)(C)O)n1 [MK1775],inactive: -0.454
19,COc1cccc(OC)c1OCCNCC1CSc2ccccc2O1 (centres undefined) [Benoxathian hydrochloride] + C=CCn1c(=O)c2cnc(Nc3ccc(N4CCN(C)CC4)cc3)nc2n1-c1cccc(C(C)(C)O)n1 [MK1775],inactive: 0.00334
20,CCC(C)(C)C(=O)O[C@H]1C[C@@H](C)C=C2C=C[C@H](C)[C@H](CC[C@@H]3C[C@@H](O)CC(=O)O3)[C@H]21 [Simvastatin (Zocor)] + C=CCn1c(=O)c2cnc(Nc3ccc(N4CCN(C)CC4)cc3)nc2n1-c1cccc(C(C)(C)O)n1 [MK1775],inactive: 0.224
21,CSc1nc(N)c2ncn([C@@H]3O[C@H](COP(=O)(O)OP(=O)(O)O)[C@@H](O)[C@H]3O)c2n1 [2-Methylthioadenosine diphosphate trisodium] + C=CCn1c(=O)c2cnc(Nc3ccc(N4CCN(C)CC4)cc3)nc2n1-c1cccc(C(C)(C)O)n1 [MK1775],inactive: 1.06
22,CCCCCCCCCCCCCCCCCCNC(=O)OCC(COP(=O)([O-])OCC[n+]1ccsc1)OC (centres undefined) + C=CCn1c(=O)c2cnc(Nc3ccc(N4CCN(C)CC4)cc3)nc2n1-c1cccc(C(C)(C)O)n1 [MK1775],inactive: 0.0131
23,N#Cc1ccc(NC(=O)Nc2ccccc2Br)c2n[nH]nc12 + C=CCn1c(=O)c2cnc(Nc3ccc(N4CCN(C)CC4)cc3)nc2n1-c1cccc(C(C)(C)O)n1 [MK1775],inactive: -0.138
24,c1ccc(-c2nn3c(c2-c2ccnc4cc(OCCN5CCOCC5)ccc24)CCC3)nc1 + C=CCn1c(=O)c2cnc(Nc3ccc(N4CCN(C)CC4)cc3)nc2n1-c1cccc(C(C)(C)O)n1 [MK1775],inactive: 0.947

# A portion from further up, for reference:
row,SMILES,Z' of S-phase gammaH2AX difference (Z-score)
1,COc1cc(C(O)C(=O)O)ccc1O (centres undefined) [(?)-Vanillylmandelic acid] + C=CCn1c(=O)c2cnc(Nc3ccc(N4CCN(C)CC4)cc3)nc2n1-c1cccc(C(C)(C)O)n1 [MK1775],inactive: -0.367
2,COc1ccc(COc2cc3oc(=O)c4cc(C(C)O)ccc4c3cc2OC)cc1 (centres undefined) [Palomid 529] + C=CCn1c(=O)c2cnc(Nc3ccc(N4CCN(C)CC4)cc3)nc2n1-c1cccc(C(C)(C)O)n1 [MK1775],inactive: 0.154
3,CCCCCCCC/C=C\CCCCCCCC(=O)O [Oleic Acid] + C=CCn1c(=O)c2cnc(Nc3ccc(N4CCN(C)CC4)cc3)nc2n1-c1cccc(C(C)(C)O)n1 [MK1775],inactive: 0.223
4,CC(C)(C)NCC(O)c1ccc(O)c(CO)c1 (centres undefined) [Albuterol hemisulfate] + C=CCn1c(=O)c2cnc(Nc3ccc(N4CCN(C)CC4)cc3)nc2n1-c1cccc(C(C)(C)O)n1 [MK1775],inactive: -0.483
5,CC(C)(C)NCC(O)c1ccc(O)c(CO)c1 (centres undefined) [Salbutamol] + C=CCn1c(=O)c2cnc(Nc3ccc(N4CCN(C)CC4)cc3)nc2n1-c1cccc(C(C)(C)O)n1 [MK1775],inactive: -0.378
